# Laboratory results: the supplement of paper PMC10032668
# Chains of the proteins cited; added tags and fusions are not shown.
# ACTL6A, O96019, UniProt O96019, whole entry: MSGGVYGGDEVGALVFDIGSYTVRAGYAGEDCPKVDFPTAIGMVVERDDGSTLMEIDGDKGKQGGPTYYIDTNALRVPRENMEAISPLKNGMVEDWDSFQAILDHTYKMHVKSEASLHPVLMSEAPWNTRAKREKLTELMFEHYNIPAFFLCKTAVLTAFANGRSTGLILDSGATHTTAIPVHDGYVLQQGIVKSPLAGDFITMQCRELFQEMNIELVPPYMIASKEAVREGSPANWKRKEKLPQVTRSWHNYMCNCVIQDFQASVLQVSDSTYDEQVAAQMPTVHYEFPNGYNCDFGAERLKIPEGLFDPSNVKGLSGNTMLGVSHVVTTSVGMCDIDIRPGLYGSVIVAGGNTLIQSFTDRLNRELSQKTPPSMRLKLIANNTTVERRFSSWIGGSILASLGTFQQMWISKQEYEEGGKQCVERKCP
# ATP6V1A, P38606, UniProt P38606, whole entry: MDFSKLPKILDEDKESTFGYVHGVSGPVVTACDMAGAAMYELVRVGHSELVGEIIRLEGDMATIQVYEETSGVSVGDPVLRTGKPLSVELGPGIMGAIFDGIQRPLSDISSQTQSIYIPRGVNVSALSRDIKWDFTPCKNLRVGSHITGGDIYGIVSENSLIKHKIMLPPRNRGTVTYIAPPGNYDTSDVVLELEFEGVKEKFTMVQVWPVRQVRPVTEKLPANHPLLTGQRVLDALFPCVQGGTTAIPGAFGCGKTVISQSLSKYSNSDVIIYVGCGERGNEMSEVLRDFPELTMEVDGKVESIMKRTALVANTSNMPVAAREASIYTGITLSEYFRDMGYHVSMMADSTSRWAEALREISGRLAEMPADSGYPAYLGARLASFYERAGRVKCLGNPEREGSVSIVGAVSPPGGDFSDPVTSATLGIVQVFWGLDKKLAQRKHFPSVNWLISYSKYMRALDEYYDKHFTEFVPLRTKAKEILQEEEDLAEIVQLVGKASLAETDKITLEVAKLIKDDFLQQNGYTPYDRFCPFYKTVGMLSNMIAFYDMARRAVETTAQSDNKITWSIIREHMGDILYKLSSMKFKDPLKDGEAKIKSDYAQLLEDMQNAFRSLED
# CKS2, P33552, UniProt P33552, whole entry: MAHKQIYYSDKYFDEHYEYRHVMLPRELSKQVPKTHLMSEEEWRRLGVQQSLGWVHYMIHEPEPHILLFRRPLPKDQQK
# EIF2S1, P05198, UniProt P05198, whole entry: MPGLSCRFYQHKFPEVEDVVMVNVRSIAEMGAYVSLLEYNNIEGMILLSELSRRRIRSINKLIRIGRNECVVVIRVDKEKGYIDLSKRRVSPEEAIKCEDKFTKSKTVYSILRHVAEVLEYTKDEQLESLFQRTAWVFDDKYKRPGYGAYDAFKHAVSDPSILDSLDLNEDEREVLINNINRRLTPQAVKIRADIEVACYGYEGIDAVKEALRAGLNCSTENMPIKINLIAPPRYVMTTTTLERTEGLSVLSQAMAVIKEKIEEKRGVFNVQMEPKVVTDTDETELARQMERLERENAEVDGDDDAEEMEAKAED
# CCAR2, Q8N163, UniProt Q8N163, whole entry: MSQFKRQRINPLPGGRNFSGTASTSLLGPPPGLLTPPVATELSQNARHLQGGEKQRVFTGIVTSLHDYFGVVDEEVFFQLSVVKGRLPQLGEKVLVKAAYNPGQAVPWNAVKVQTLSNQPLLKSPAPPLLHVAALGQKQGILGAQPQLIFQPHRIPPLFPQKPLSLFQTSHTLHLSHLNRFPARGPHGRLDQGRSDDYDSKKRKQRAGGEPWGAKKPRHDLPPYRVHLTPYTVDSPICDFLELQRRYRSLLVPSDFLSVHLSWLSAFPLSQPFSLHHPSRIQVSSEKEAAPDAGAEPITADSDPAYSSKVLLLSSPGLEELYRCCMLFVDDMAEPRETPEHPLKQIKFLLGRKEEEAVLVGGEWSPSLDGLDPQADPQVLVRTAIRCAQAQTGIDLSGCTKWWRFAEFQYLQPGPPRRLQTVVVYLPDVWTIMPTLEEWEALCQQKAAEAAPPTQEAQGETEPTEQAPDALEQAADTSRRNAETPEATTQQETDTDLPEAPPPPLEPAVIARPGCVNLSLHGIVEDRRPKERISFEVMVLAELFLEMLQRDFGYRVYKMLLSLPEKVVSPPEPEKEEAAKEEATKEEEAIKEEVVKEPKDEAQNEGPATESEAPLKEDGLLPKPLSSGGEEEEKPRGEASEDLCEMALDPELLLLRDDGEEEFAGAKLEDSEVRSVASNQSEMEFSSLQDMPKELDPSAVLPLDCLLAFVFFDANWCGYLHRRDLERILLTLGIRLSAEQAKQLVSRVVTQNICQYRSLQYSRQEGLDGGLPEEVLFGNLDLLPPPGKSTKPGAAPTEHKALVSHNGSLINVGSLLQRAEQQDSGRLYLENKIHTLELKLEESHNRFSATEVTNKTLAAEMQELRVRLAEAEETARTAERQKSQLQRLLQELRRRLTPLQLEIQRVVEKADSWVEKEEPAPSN
# EIF3F, O00303, UniProt O00303, whole entry: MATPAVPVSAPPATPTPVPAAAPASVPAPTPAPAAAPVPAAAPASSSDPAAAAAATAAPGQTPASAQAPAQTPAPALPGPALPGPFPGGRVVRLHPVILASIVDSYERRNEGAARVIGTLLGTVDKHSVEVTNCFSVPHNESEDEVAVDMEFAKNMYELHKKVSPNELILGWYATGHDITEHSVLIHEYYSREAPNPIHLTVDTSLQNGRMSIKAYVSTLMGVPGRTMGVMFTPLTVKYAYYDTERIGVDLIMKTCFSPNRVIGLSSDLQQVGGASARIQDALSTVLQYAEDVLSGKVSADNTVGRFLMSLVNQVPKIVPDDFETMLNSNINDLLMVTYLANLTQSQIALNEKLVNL
# NDUFS6, O75380, UniProt O75380, whole entry: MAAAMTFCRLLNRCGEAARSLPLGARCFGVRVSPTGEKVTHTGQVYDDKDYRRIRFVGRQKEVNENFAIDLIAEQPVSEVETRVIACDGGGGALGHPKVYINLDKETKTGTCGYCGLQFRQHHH
# PPP1CA, P62136, UniProt P62136, whole entry: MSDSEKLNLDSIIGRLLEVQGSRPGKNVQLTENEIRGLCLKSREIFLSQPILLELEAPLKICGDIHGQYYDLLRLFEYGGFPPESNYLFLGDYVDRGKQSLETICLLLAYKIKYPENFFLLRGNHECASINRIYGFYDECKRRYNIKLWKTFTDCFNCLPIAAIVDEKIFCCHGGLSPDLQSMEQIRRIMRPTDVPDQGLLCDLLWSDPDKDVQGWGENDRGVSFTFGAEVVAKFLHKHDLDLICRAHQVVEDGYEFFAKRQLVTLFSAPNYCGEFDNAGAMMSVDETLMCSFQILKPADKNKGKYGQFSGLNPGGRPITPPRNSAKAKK
# The other results are listed elsewhere or left out. Only hits are listed; about a third recur on repeated control peptides.
# Experiments:
# Assay in all cases: PRISMA enrichment of interactor (LFQ) in peptide spot vs all other peptide spots (log2 fold change); higher = stronger / more specific binding of the interactor to the peptide
# [1] = target: ACTL6A, O96019
# Protocol: (§1)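 PRISMA: 15-aa overlapping tiles (offset 8 aa) of 60 microproteins, plus SOS1/GLUT1 control peptides, were spot-synthesized on cellulose membranes in triplicate. Membranes were incubated with benzonase-treated HEK293T lysate, and bound proteins were identified by LC-MS/MS with LFQ. Enrichment is the log2 fold change of each protein in one spot versus all other spots. Only interactors passing the significance cutoff are listed.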
# [2] = target: AQR, O60306
# Protocol: as §1
# [3] = target: ATP6V1A, P38606
# Protocol: as §1
# [4] = target: C19orf53, Q9UNZ5
# Protocol: as §1
# [5] = target: CDCA7L, Q96GN5
# Protocol: as §1
# [6] = target: CKS2, P33552
# Protocol: as §1
# [7] = target: COPS3, Q9UNS2
# Protocol: as §1
# [8] = target: CXorf56, Q9H5V9
# Protocol: as §1
# [9] = target: EIF2S1, P05198
# Protocol: as §1
# [10] = target: HAGH, Q16775
# Protocol: as §1
# [11] = target: MRPS14, O60783
# Protocol: as §1
# [12] = target: MRPS9, P82933
# Protocol: as §1
# [13] = target: MTG2, Q9H4K7
# Protocol: as §1
# [14] = target: RARS, P54136
# Protocol: as §1
# [15] = target: TARS, P26639
# Protocol: as §1
# [16] = target: TMEM256-PLSCR3
# Protocol: as §1
# [17] = target: UBTF, P17480
# Protocol: as §1
# [18] = target: WDR5, P61964
# Protocol: as §1
# [19] = target: AHSG, P02765
# Protocol: as §1
# [20] = target: AKAP8, O43823
# Protocol: as §1
# [21] = target: AKR1C1, Q04828
# Protocol: as §1
# [22] = target: ARMC6, Q6NXE6
# Protocol: as §1
# [23] = target: ATP5MF, P56134
# Protocol: as §1
# [24] = target: BHMT, Q93088
# Protocol: as §1
# [25] = target: CARM1, Q86X55
# Protocol: as §1
# [26] = target: CCAR2, Q8N163
# Protocol: as §1
# [27] = target: DDX42, Q86XP3
# Protocol: as §1
# [28] = target: EIF3F, O00303
# Protocol: as §1
# [29] = target: EXOSC10, Q01780
# Protocol: as §1
# [30] = target: FADS1, O60427
# Protocol: as §1
# [31] = target: FAM207A, Q9NSI2
# Protocol: as §1
# [32] = target: FARSB, Q9NSD9
# Protocol: as §1
# [33] = target: GATA6, Q92908
# Protocol: as §1
# [34] = target: HADHA, P40939
# Protocol: as §1
# [35] = target: ITCH, Q96J02
# Protocol: as §1
# [36] = target: KIF18A, Q8NI77
# Protocol: as §1
# [37] = target: MED23, Q9ULK4
# Protocol: as §1
# [38] = target: MTHFD2, P13995
# Protocol: as §1
# [39] = target: MTOR, P42345
# Protocol: as §1
# [40] = target: MTX2, O75431
# Protocol: as §1
# [41] = target: NDUFS6, O75380
# Protocol: as §1
# [42] = target: OGT, O15294
# Protocol: as §1
# [43] = target: PPP1CA, P62136
# Protocol: as §1
# [44] = target: PPP1CC, P36873
# Protocol: as §1
# [45] = target: PRAF2, O60831
# Protocol: as §1
# [46] = target: PRDX6, P30041
# Protocol: as §1
# [47] = target: PRMT1, Q99873
# Protocol: as §1
# [48] = target: RP9, Q8TA86
# Protocol: as §1
# [49] = target: SNU13, P55769
# Protocol: as §1
# [50] = target: SRFBP1, Q8NEF9
# Protocol: as §1
# [51] = target: TNIK, Q9UKE5
# Protocol: as §1
# [52] = target: TOP2B, Q02880
# Protocol: as §1
# [53] = target: UBE2N, P61088
# Protocol: as §1
# [54] = target: UMPS, P11172
# Protocol: as §1
# [55] = target: VCP, P55072
# Protocol: as §1
# [56] = target: YTHDC1, Q96MU7
# Protocol: as §1
# [57] = target: ZC3H11A, O75152
# Protocol: as §1
# [58] = target: ZNF281, Q9Y2X9
# Protocol: as §1
binder,measurement,setting,value
EMSMDSQLVWRLLTD [NAV2-AS2],PRISMA enrichment of interactor (log2),[1],5.98
same,PRISMA enrichment of interactor (log2),[2],3.88
same,PRISMA enrichment of interactor (log2),[3],7.43
same,PRISMA enrichment of interactor (log2),[4],6.39
same,PRISMA enrichment of interactor (log2),[5],6.79
same,PRISMA enrichment of interactor (log2),[6],4.52
same,PRISMA enrichment of interactor (log2),[7],5.73
same,PRISMA enrichment of interactor (log2),[8],5.26
same,PRISMA enrichment of interactor (log2),[9],6.24
same,PRISMA enrichment of interactor (log2),[10],6.74
same,PRISMA enrichment of interactor (log2),[11],4.84
same,PRISMA enrichment of interactor (log2),[12],5.25
same,PRISMA enrichment of interactor (log2),[13],4.18
same,PRISMA enrichment of interactor (log2),[14],4.42
same,PRISMA enrichment of interactor (log2),[15],4.18
same,PRISMA enrichment of interactor (log2),[16],5.11
same,PRISMA enrichment of interactor (log2),[17],5.64
same,PRISMA enrichment of interactor (log2),[18],5.97
ARGPGGGPLLASFAT [RP11-140K17.3_2],PRISMA enrichment of interactor (log2),[1],4.52
same,PRISMA enrichment of interactor (log2),[19],4.95
same,PRISMA enrichment of interactor (log2),[20],4.43
same,PRISMA enrichment of interactor (log2),[21],6.2
same,PRISMA enrichment of interactor (log2),[22],5.68
same,PRISMA enrichment of interactor (log2),[23],5.19
same,PRISMA enrichment of interactor (log2),[3],4.83
same,PRISMA enrichment of interactor (log2),[24],5.79
same,PRISMA enrichment of interactor (log2),[25],5.19
same,PRISMA enrichment of interactor (log2),[26],5.58
same,PRISMA enrichment of interactor (log2),[27],7.98
same,PRISMA enrichment of interactor (log2),[28],4.81
same,PRISMA enrichment of interactor (log2),[29],4.77
same,PRISMA enrichment of interactor (log2),[30],8.36
same,PRISMA enrichment of interactor (log2),[31],5.97
same,PRISMA enrichment of interactor (log2),[32],8.66
same,PRISMA enrichment of interactor (log2),[33],4.55
same,PRISMA enrichment of interactor (log2),[34],5.55
same,PRISMA enrichment of interactor (log2),[35],4.57
same,PRISMA enrichment of interactor (log2),[36],4.54
same,PRISMA enrichment of interactor (log2),[37],5.2
same,PRISMA enrichment of interactor (log2),[38],10.2
same,PRISMA enrichment of interactor (log2),[39],8.47
same,PRISMA enrichment of interactor (log2),[40],4.58
same,PRISMA enrichment of interactor (log2),[41],4.41
same,PRISMA enrichment of interactor (log2),[42],5.08
same,PRISMA enrichment of interactor (log2),[43],10.9
same,PRISMA enrichment of interactor (log2),[44],6.86
same,PRISMA enrichment of interactor (log2),[45],5.47
same,PRISMA enrichment of interactor (log2),[46],4.37
same,PRISMA enrichment of interactor (log2),[47],4.39
same,PRISMA enrichment of interactor (log2),[48],5.52
same,PRISMA enrichment of interactor (log2),[49],4.91
same,PRISMA enrichment of interactor (log2),[50],4.41
same,PRISMA enrichment of interactor (log2),[51],4.14
same,PRISMA enrichment of interactor (log2),[52],6.82
same,PRISMA enrichment of interactor (log2),[53],4.92
same,PRISMA enrichment of interactor (log2),[54],5.91
same,PRISMA enrichment of interactor (log2),[55],4.61
same,PRISMA enrichment of interactor (log2),[56],9.15
same,PRISMA enrichment of interactor (log2),[57],4.97
same,PRISMA enrichment of interactor (log2),[58],8.4

# Reprinted at random: two records from the list, in no set order.
binder,measurement,setting,value
EMSMDSQLVWRLLTD [NAV2-AS2],PRISMA enrichment of interactor (log2),[5],6.79
same,PRISMA enrichment of interactor (log2),[11],4.84
